Amino acid sequences for entries named in this document (tags omitted).
UniProt Q0JBA9, entry or part of it: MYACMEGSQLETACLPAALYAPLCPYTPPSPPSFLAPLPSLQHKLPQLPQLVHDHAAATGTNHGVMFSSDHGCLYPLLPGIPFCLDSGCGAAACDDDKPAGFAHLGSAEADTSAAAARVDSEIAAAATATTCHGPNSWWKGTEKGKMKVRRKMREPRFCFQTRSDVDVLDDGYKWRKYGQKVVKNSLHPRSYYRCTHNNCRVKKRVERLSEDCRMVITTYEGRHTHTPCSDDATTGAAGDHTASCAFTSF

Some of the results follow.
These sequences were tested against OsWRKY34 (Oryza sativa, UniProt Q0JBA9 1-250) (assay: protein-binding microarray (RPBM); PBS, 2% BSA, 51.3 ng/ul salmon testes DNA, 50 uM zinc acetate, 200 nM TF, 25 C, 1 h; high values mean tight binding). Settings: protein: recombinant; tags: N-terminal polyhistidine and DsRed monomer fusion (pET32a); label: CyDye5-dUTP incorporated in the synthesized complementary strand; 3' TTTTT single-stranded linker to array surface; dsDNA, one strand shown.
Summary of the method: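 A custom Agilent array was converted to double-stranded form by primer extension with Cy5-dUTP and blocked with 2% BSA. Protein at 200 nM in PBS with 2% BSA, salmon testes DNA and 50 µM zinc acetate was applied for 1 h at 25 °C, followed by washing. The proteins were polyhistidine–DsRed N-terminal fusions of transcription factors, expressed in E. coli BL21-CodonPlus and Ni–NTA-purified. The binding signal is per-feature fluorescence intensity (arbitrary units) from an Axon 4000B scanner.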
“GGAGGATGGGTGGGTGGGCTCCACCGCTCCATACGGCGAACGGAGTCACCTAGTGCAG” was tested, and the binding signal was 8270 fluorescence intensity (a.u.).
With “CACAGAGTCACAGACCAGTCCACCACCAACTACAGTTGCACGGAGTCACCTAGTGCAG” the binding signal was 10900 fluorescence intensity (a.u.).
In the case of “GACGAACGGTCAAACATGTTTAAAAAAGTCAACGCTGTCACGGAGTCACCTAGTGCAG”, the binding signal is reported as 12900 fluorescence intensity (a.u.).
With “TCTCATGTCACCACCGCCGGCCGCTAGTGCCTTTCTGGGACGGAGTCACCTAGTGCAG” the binding signal was 8750 fluorescence intensity (a.u.).
“GAAGCCACTCGCCACTGCAAAGCGCTCTCTCTCTCTCTCTCGGAGTCACCTAGTGCAG” was tested, and the binding signal was 8570 fluorescence intensity (a.u.).
“TTCTTTTCTCCATTTTTACCTGTCTGACAGGATCTAGTATCGGAGTCACCTAGTGCAG” was tested, and the binding signal was 8550 fluorescence intensity (a.u.).
With “AGGTTCCATTCAGAGTGTATGAATCGCTGTTGGTTCTTATCGGAGTCACCTAGTGCAG” the binding signal was 8890 fluorescence intensity (a.u.).
With “TTTTGAAATCCGCGCCTACTTTTTTCTTGTCTCTTCTGTGCGGAGTCACCTAGTGCAG” the binding signal was 8400 fluorescence intensity (a.u.).
For “TTTTTTTGTAATCCAGATCGTGCCAGTTCTCCTATTATTTCGGAGTCACCTAGTGCAG”, the binding signal was 13000 fluorescence intensity (a.u.).
For “TGTTTCTGTCCTCACCCACATGGTTTTTTTAGCTATATTTCGGAGTCACCTAGTGCAG”, the binding signal was 11700 fluorescence intensity (a.u.).
For “GTTATCTCTTTTTTCATTTACCTTTGTTTTTTTTCTGTCGCGGAGTCACCTAGTGCAG”, the binding signal was 11300 fluorescence intensity (a.u.).
With “ATGCCATTTCAATAGTGAACTTAGGTTATTTTGGCTTCAACGGAGTCACCTAGTGCAG” the binding signal was 8340 fluorescence intensity (a.u.).
In the case of “CATGTAAGTATGGGCCGCCCGGATCTCGCATCTCCTCTTACGGAGTCACCTAGTGCAG”, the binding signal is reported as 8460 fluorescence intensity (a.u.).
With “ATGCTGTTTAATATGTGTGGATATATTCTATGTGGTCTGCCGGAGTCACCTAGTGCAG” the binding signal was 8950 fluorescence intensity (a.u.).
In the case of “CCCTTTAAACTTTCAACTTTTCCGTTACATTAAATTTTGGCGGAGTCACCTAGTGCAG”, the binding signal is reported as 9360 fluorescence intensity (a.u.).
For “CGTACCTTCTCTGTTGAATCTCCTGTTCGCTTTTCTGTTACGGAGTCACCTAGTGCAG”, the binding signal was 9160 fluorescence intensity (a.u.).
With “TGTATATATAGGTTCTGTTTGGGGAGAGTTTCTAGTTGCTCGGAGTCACCTAGTGCAG” the binding signal was 8230 fluorescence intensity (a.u.).
In the case of “GTCACCATCGCTATCCAAGTAGGTTGTTCCAACATAACCCCGGAGTCACCTAGTGCAG”, the binding signal is reported as 8360 fluorescence intensity (a.u.).
For “ACTTGCAACTTTGCTTTGCTCCTACTCAGTGTTCACGGATCGGAGTCACCTAGTGCAG”, the binding signal was 9630 fluorescence intensity (a.u.).
For “ATTATCCTCTTGTTTTTCAACTGGAATGAACCACCAACAACGGAGTCACCTAGTGCAG”, the binding signal was 9790 fluorescence intensity (a.u.).
With “CTCTTCTTTCTCTCTGAGCCCGTGTGTGTTTCTTGGGGCTCGGAGTCACCTAGTGCAG” the binding signal was 11600 fluorescence intensity (a.u.).
“GCCGTTTGCCTTTGTCCATTGAATGCTTTTGTTGTGGTCGCGGAGTCACCTAGTGCAG” was tested, and the binding signal was 8280 fluorescence intensity (a.u.).
For “TGCATGCAGATTTGCATCATGTTAAATAAATCAAATTAAACGGAGTCACCTAGTGCAG”, the binding signal was 13400 fluorescence intensity (a.u.).
“ACCCCGTTCCCGTTTCCATTTTCACGCCACCCCACCACCCCGGAGTCACCTAGTGCAG” was tested, and the binding signal was 10500 fluorescence intensity (a.u.).
For “GGCTTCCTACTGCATTCTCTGTCTCATGCAATCTCCATTACGGAGTCACCTAGTGCAG”, the binding signal was 13300 fluorescence intensity (a.u.).
For “CCCTTCGTTCCCTGCCTACTACGCAACGCACGGCTGCTTTCGGAGTCACCTAGTGCAG”, the binding signal was 8500 fluorescence intensity (a.u.).
With “TATTTCAATTCTTGCGTTATTCTATTTTTTGTGTTTTTCCCGGAGTCACCTAGTGCAG” the binding signal was 12700 fluorescence intensity (a.u.).
“TGTTGCAGCCTTTTGTGTTGTTCAACTTTATACTAGACAACGGAGTCACCTAGTGCAG” was tested, and the binding signal was 9310 fluorescence intensity (a.u.).
With “CGGCGCGGCTGAGGAGGGGCGGCGGGAGGAAGGGGAAGGACGGAGTCACCTAGTGCAG” the binding signal was 10700 fluorescence intensity (a.u.).
With “TCTCTTCAAGGGACAAGGGTTTATGGGTGGGTGAACAGGTCGGAGTCACCTAGTGCAG” the binding signal was 13200 fluorescence intensity (a.u.).
“AATCCGGACCGTCCATCTTCTATCCTAATCCGTTCTGTCGCGGAGTCACCTAGTGCAG” was tested, and the binding signal was 9160 fluorescence intensity (a.u.).
For “AAATATGATCTTGTACCATCGTTTTAAACTAGTACATCGTCGGAGTCACCTAGTGCAG”, the binding signal was 9060 fluorescence intensity (a.u.).
“ATACTTTAATAAAATCATATATTTGTTAACACTTTTATATCGGAGTCACCTAGTGCAG” was tested, and the binding signal was 8440 fluorescence intensity (a.u.).
With “CTCTCCGGGATGTCCGGTTTCGCCCTGTATTGTTGGCGGGCGGAGTCACCTAGTGCAG” the binding signal was 8220 fluorescence intensity (a.u.).
With “CAACCTACTTCTATTAAAAGTTTTACAAGTTACACCCTTACGGAGTCACCTAGTGCAG” the binding signal was 8140 fluorescence intensity (a.u.).
With “TCTGTATGTTACTTGTTTACGGTCTCATGTCCAGCTGTTTCGGAGTCACCTAGTGCAG” the binding signal was 13000 fluorescence intensity (a.u.).
“ACCACCACCACCATCGCTTTCTTCCTCCTCGCCTTCTGCTCGGAGTCACCTAGTGCAG” was tested, and the binding signal was 8870 fluorescence intensity (a.u.).
With “GCAACACTGGATCGCACTGCCGCCGCCGCCGACGCCTCAACGGAGTCACCTAGTGCAG” the binding signal was 9180 fluorescence intensity (a.u.).
“TGCTGTCCGCCTGCCTGCCTACTTTCTCCACTTTTTTCTCCGGAGTCACCTAGTGCAG” was tested, and the binding signal was 10800 fluorescence intensity (a.u.).
For “GTCCCAGCCGCATGTCACTGCCACTCTGCACTCTTCTCTCCGGAGTCACCTAGTGCAG”, the binding signal was 14200 fluorescence intensity (a.u.).
For “CCGTCACATCATTCTAATTTTAACCAAACTTCTAATTTTACGGAGTCACCTAGTGCAG”, the binding signal was 8280 fluorescence intensity (a.u.).
For “TCAATCGACCATTCCTATGTTTTTCCTGTGTTTTGTAATCCGGAGTCACCTAGTGCAG”, the binding signal was 8890 fluorescence intensity (a.u.).
For “TTCGCCTCTCATCTACCCCGTCGCTCTCACCGTCGCGTTACGGAGTCACCTAGTGCAG”, the binding signal was 11000 fluorescence intensity (a.u.).
With “GTCAATGTGCACAATATTTCATTTGGTCCTCACCTCAGCCCGGAGTCACCTAGTGCAG” the binding signal was 8800 fluorescence intensity (a.u.).
For “ATCATCAGTCTGAACTTGACTTGCAACTACCCTGTGTCGTCGGAGTCACCTAGTGCAG”, the binding signal was 10400 fluorescence intensity (a.u.).
For “TGGTCCCACCTGTCATACACACATTACGTCTTAGAGTCCGCGGAGTCACCTAGTGCAG”, the binding signal was 8260 fluorescence intensity (a.u.).
In the case of “TATATACCCGTTTCAAATTTAAATTTGAATTATATCTGATCGGAGTCACCTAGTGCAG”, the binding signal is reported as 8690 fluorescence intensity (a.u.).
“ATGATGGGATGTGGAAACTGGAAAGTTGTTTTTATCGAAACGGAGTCACCTAGTGCAG” was tested, and the binding signal was 8140 fluorescence intensity (a.u.).
For “ATTTTCTTACTTGTTACCTGAATAAATTACTTCCCCTATGCGGAGTCACCTAGTGCAG”, the binding signal was 8680 fluorescence intensity (a.u.).
“GCCAACCAACCTGTCTTCCTTGGACTCGGACCTCTCGTTTCGGAGTCACCTAGTGCAG” was tested, and the binding signal was 8080 fluorescence intensity (a.u.).
“TCGTCGTCGTCGGAATCCCTGGATCAGTTTTCTAGCCTCACGGAGTCACCTAGTGCAG” was tested, and the binding signal was 8260 fluorescence intensity (a.u.).
In the case of “ATGAGCTTTTCTAACCATTTATTCTATTGCTTCTAATTTTCGGAGTCACCTAGTGCAG”, the binding signal is reported as 10400 fluorescence intensity (a.u.).
With “GCTCACTGAATTTTTTGCTATAAATACACCCCGTCTTTTCCGGAGTCACCTAGTGCAG” the binding signal was 8340 fluorescence intensity (a.u.).
For “TCGACCGATACTTCGCCGTCGTCGCCGTATATGTCATGTCCGGAGTCACCTAGTGCAG”, the binding signal was 8570 fluorescence intensity (a.u.).

Reference: publication PMC7819943, “Rice protein-binding microarrays: a tool to detect cis-acting elements near promoter regions in rice”
